In publication PMC10933263 (EMBO Reports, 2024):
Results are given in words; binding and its absence hold for the method and conditions named. For some assays here: Binding seen in cells or lysates may run through a third protein. Some results given as binding are weak or reduced against the parent protein; the word gives no strength.

By UniProt entry, the sequences of proteins in these tests, tags left out.
UniProt P63092: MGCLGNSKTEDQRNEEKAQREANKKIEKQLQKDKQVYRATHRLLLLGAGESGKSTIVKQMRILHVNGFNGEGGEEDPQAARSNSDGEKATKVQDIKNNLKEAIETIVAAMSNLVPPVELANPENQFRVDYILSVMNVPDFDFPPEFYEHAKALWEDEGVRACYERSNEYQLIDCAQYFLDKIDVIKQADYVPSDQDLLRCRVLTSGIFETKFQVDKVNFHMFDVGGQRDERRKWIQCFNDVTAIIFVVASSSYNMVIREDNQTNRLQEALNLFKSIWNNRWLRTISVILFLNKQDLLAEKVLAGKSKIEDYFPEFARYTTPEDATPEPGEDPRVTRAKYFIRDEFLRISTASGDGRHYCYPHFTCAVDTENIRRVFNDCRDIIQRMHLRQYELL

Assays:
[1] = molecular target: bovine adenylyl cyclase AC8, purified, tag-free (bovine) (UniProt E1BQ12); assay: cross-linking; XL-MS with DSS and PDH/DMTMM on purified proteins: AC8 alone, AC8:Gαs 1:1.5, AC8:Gβγ 1:3, AC8:CaM 1:2, AC8:CaM:Gαs 1:2:1.5; 50 mM HEPES pH 7.5, 150 mM NaCl, 0.02% GDN, 0.5 mM CaCl2, 1 mM MgCl2, 2.5 mM MnCl2, 100 µM GTPγS; 25 °C; both purified
[2] = molecular target: bovine adenylyl cyclase AC8, purified, tag-free (bovine) (UniProt E1BQ12); assay: cross-linking; XL-MS with DSS and PDH/DMTMM on the purified AC8 preparation: links to endogenous proteins copurified with AC8 from HEK293 cells

Substance: bovine adenylyl cyclase AC8, purified, tag-free (from UniProt E1BQ12 1-1253) (enzyme)
- binding [1]: binds

Substance: endogenous Gαs (GNAS) copurified with AC8 (from UniProt P63092 1-394)
- binding [2]: binds
